# Laboratory results published in article PMC7862700.
# Amino acid sequences for entries named in this document (tags omitted). A change or cut given only in a name is not applied to a line headed by its entry.
# UniProt Q00613: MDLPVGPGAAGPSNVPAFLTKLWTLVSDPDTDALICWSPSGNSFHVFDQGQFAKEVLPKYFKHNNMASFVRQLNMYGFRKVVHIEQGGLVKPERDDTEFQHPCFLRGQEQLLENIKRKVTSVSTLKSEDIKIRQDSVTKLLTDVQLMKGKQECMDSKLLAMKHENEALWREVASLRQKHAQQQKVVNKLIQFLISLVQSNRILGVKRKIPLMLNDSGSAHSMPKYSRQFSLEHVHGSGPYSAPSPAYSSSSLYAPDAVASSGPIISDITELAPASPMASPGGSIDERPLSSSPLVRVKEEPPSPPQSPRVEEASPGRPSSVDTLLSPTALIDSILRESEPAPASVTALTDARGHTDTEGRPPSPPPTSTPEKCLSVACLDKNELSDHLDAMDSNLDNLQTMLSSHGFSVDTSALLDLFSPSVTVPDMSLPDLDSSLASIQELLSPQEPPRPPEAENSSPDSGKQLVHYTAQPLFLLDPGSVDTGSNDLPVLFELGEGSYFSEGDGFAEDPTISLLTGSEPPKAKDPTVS
# The list shows a part of the results, in another mix than the full data. For part of these data: At the low end of the ranking the order means little. Some of the results follow. For part of these data: The source does not settle which construct or isoform was used.
# Assays:
# HSF1 = HSF1 (UniProt Q00613); test: DAPPL (digital affinity profiling via proximity ligation, sequencing); details: 10 mM Tris-HCl pH 7.5, 50 mM NaCl, 1 mM DTT, 4% glycerol, room temperature, 30 min; GST-TFs on glutathione beads, 16-mer random dsDNA library, 0.1% …; high values mean tight binding; double strand, one strand shown; scale: fold enrichment (6-mer frequency, TF over GST control)
# ELF2 = biological target: T1, ELF2 (UniProt Q15723); test: as above; details: 10 mM Tris-HCl pH 7.5, 50 mM NaCl, 1 mM DTT, 4% glycerol, room temperature, 30 min; GST-TFs on glutathione beads, 16-mer random dsDNA library, 0.1% …; high values mean tight binding; double strand, one strand shown; scale: fold enrichment (6-mer frequency, TF over GST control)
# T1 sequence: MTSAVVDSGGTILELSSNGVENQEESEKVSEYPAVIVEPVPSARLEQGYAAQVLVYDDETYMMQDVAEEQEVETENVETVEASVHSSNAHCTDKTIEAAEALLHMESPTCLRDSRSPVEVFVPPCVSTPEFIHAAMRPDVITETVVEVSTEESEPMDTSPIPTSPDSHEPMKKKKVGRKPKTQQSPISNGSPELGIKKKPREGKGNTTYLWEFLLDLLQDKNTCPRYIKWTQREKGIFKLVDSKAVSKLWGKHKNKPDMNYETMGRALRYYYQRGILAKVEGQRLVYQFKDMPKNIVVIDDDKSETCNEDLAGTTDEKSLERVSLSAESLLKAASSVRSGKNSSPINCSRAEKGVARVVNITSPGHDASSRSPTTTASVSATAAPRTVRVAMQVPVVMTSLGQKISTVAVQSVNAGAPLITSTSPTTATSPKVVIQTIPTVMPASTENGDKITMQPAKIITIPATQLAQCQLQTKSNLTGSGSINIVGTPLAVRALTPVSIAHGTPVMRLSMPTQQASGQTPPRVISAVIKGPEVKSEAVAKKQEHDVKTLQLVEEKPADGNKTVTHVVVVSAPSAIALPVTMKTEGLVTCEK
sequence,measurement,setting,value
GTATGG,binding signal,HSF1,0.839
same,binding signal,ELF2,1
ACATAA,binding signal,HSF1,1.2
same,binding signal,ELF2,1.09
CGCGTT,binding signal,HSF1,0.903
same,binding signal,ELF2,1.05
TATGAC,binding signal,HSF1,1.18
same,binding signal,ELF2,1.2
AATATA,binding signal,HSF1,1.38
same,binding signal,ELF2,1.38
GTGGTA,binding signal,HSF1,0.835
same,binding signal,ELF2,0.903
